In publication PMC6567058:
For at least one entry, the source does not settle the construct or the ends of the probe. For part of these data: A negative result means that nothing was seen under these conditions.

Tests used:
[1] = test system: GST-CsTCP14 (Cucumis sativus (cucumber 9930)); experiment: competition with a labelled probe; settings: LightShift Chemiluminescent EMSA kit, 20 uL reactions, 6.5% native polyacrylamide gel, pH and temperature not stated, recombinant protein, protein details: N-terminal GST (pGEX4T-1)
[2] = test system: GST-CsTCP14 (Cucumis sativus (cucumber 9930)); experiment: EMSA; settings: LightShift Chemiluminescent EMSA kit, 20 uL reactions, 6.5% native polyacrylamide gel; pH and temperature not stated; recombinant protein; protein details: N-terminal GST (pGEX4T-1); label: 5'-biotin (unlabeled as cold competitor)

Sequence | binding result ([1]; unlabeled N2 against biotin-N1, shifted band reappeared, label: none (cold competitor)) | binding result ([1]; unlabeled N1 in increasing amounts against biotin-N1, shift attenuated, label: 5'-biotin (unlabeled as cold competitor)) | binding result [2]
TTGTTTTATTTTGGTAAATAAAGTTTTACA (double strand) [CsNBS-LRR mutant probe (GGTCCC to GGTAAA)] | no binding | – | –
TTGTTTTATTTTGGTCCCTAAAGTTTTACA (double strand) [CsNBS-LRR (Csa6M344280.1) promoter probe] | – | binds | binds
